At least one compound was matched to its structure with a doubt left.
Test system: ovariectomized rats
Test: Bone mechanics analysis (three-point bending test of femur)
Type: in vivo, Wistar rats
Conditions: estradiol 200 μg/kg B.W. once per day by tube feeding (E2 group), week 12
Method: For ovariectomy rats, bilateral ovariectomy surgery was conducted at 12-week-old under anesthesia with Zoletil 50 (Tiletamine 20-40 mg/kg+Zolazepam 5-10 mg/kg) and Rompun, following the FDA Guidelines and Animal Models for Osteoporosis. For sham surgery rats, set as control group, the surgery performed surgical incision without removing the ovaries was also conducted at 12-week-old under anesthesia with Zoletil 50 (Tiletamine 20-40 mg/kg+Zolazepam 5-10 mg/kg) and Rompun. After ovariectomy surgery, 24 rats of ovariectomy group were randomly divided into 4 groups, namely, 6 rats in each group. After 2 weeks of surgery, the rats were oral administered once a day with different samples based on their groups. The rats were weighed once a week as the basis for the dose of administration for 12 weeks and the weight data were recorded. […]
The bio-mechanical strength of femur was measured using bio-mechanical testing instrument (RT1-TST, Royalty Tec.Ins. Ltd) after removing the soft tissue of left leg. First, the length of the femur was measured by the electronic vernier and the mid-position of the femur was set so as to be the scale standard which must be aligned when compressing the vertical physical strength of the femur by the bone stress meter. […]

Structure (SMILES): C[C@]12CC[C@@H]3c4ccc(O)cc4CC[C@H]3[C@@H]1CC[C@@H]2O [E2, 1743 estradiol, reference compound]
- Elastic modulus: 15.9.9 ± 7.4 MPa

From US10881634B2, “Method for treatment or prevention of a disease associated with a decrease in bone mass and method of improving bone architecture and bio mechanical strength of bone” (HUGHES BIOTECHNOLOGY CO., LTD, priority 2017, dated 2021)
